Data from the supplement of paper PMC6411743.
± gives the standard deviation of the averaged measurements. Some of the results follow.

Amino acid sequences for entries named in this document (tags omitted). A change or cut given only in a name is not applied to a line headed by its entry.
UniProt Q9H0A0: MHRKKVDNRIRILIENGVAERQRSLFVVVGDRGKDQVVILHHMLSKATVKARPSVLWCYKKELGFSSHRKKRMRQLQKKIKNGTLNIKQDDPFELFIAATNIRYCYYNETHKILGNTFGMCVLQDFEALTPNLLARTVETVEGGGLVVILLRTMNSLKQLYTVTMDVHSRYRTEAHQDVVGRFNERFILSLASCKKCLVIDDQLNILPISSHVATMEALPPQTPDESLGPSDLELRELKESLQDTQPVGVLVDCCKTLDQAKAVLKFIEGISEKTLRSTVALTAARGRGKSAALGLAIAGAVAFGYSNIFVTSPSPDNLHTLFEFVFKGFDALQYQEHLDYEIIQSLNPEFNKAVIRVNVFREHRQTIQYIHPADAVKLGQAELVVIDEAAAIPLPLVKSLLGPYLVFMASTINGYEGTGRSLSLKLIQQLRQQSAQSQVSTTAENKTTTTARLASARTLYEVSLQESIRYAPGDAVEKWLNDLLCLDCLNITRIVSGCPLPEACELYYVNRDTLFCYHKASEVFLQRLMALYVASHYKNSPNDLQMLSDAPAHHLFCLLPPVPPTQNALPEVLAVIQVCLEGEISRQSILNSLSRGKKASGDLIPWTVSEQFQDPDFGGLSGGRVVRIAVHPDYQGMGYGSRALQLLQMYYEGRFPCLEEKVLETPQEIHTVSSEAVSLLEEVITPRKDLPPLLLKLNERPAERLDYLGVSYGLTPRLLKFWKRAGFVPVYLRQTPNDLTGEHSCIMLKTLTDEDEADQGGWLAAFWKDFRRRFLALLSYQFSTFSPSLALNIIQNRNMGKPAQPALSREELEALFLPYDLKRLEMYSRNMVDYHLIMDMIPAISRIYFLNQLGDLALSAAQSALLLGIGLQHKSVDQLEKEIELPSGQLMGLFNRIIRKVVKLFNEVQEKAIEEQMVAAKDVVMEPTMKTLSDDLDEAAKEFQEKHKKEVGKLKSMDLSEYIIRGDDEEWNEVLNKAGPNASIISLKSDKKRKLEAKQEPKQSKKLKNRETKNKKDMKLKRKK
UniProt Q9NU19: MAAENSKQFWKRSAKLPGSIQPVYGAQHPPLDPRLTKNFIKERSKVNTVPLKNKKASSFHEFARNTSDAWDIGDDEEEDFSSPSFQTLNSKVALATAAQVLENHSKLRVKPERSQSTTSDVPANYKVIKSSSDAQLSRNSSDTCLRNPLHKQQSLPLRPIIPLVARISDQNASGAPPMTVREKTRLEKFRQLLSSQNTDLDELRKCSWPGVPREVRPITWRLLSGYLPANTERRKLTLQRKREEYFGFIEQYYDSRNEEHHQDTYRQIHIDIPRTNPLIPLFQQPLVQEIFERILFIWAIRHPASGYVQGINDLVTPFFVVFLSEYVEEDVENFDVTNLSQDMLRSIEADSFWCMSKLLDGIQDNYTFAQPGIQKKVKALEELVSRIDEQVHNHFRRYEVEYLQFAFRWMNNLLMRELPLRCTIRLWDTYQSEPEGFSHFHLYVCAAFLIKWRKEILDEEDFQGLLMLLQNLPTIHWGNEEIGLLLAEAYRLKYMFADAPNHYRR
UniProt Q9NPJ3: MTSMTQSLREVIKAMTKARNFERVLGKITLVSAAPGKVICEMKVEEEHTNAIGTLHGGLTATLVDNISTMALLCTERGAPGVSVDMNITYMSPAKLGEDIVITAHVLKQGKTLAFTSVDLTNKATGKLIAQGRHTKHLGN
UniProt Q9NPA3, whole entry: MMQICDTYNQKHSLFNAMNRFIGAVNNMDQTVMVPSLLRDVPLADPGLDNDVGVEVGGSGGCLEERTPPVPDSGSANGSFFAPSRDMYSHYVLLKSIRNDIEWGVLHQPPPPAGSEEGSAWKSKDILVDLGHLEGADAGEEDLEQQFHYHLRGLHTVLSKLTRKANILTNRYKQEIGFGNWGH
UniProt Q9NPJ6: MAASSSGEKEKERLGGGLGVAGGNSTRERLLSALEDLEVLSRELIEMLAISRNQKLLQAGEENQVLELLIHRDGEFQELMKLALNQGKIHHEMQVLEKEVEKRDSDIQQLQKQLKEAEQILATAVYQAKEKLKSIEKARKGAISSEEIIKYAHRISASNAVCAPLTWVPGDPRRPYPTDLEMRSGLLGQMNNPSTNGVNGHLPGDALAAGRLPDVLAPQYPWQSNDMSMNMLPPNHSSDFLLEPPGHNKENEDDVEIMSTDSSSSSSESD
UniProt Q9H0R6: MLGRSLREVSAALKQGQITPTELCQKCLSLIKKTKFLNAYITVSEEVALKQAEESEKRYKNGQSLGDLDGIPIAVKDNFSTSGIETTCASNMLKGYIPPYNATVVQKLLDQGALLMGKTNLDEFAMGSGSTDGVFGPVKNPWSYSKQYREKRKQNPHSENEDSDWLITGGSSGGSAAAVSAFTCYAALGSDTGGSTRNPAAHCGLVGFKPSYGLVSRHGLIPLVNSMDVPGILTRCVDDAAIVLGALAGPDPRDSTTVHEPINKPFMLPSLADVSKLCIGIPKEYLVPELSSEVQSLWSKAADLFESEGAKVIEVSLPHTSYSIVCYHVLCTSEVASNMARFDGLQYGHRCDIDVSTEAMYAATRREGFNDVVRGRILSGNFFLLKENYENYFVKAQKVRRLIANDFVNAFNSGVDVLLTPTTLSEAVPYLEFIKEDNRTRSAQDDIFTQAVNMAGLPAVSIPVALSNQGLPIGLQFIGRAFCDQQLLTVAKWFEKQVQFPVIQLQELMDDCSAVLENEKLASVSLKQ
UniProt Q9NPF5, whole entry: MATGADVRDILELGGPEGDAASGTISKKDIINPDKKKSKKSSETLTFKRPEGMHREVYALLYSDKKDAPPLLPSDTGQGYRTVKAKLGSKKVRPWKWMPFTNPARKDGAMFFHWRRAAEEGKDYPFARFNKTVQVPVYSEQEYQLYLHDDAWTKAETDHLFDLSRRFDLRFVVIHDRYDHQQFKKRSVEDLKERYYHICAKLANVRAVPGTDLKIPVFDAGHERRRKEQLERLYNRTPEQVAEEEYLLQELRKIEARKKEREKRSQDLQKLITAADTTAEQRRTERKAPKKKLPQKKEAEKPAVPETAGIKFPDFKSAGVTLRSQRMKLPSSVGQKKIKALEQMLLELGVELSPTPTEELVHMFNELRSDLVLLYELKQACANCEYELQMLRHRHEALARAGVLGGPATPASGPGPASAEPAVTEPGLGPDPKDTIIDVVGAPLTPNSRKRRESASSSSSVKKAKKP
UniProt Q9NR28: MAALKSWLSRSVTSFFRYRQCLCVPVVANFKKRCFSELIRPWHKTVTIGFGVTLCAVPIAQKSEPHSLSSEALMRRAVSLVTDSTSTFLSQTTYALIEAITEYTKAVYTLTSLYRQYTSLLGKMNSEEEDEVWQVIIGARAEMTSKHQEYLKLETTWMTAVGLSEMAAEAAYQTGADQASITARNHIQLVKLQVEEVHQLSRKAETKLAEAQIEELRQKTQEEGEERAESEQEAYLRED
UniProt Q9H9A5, whole entry: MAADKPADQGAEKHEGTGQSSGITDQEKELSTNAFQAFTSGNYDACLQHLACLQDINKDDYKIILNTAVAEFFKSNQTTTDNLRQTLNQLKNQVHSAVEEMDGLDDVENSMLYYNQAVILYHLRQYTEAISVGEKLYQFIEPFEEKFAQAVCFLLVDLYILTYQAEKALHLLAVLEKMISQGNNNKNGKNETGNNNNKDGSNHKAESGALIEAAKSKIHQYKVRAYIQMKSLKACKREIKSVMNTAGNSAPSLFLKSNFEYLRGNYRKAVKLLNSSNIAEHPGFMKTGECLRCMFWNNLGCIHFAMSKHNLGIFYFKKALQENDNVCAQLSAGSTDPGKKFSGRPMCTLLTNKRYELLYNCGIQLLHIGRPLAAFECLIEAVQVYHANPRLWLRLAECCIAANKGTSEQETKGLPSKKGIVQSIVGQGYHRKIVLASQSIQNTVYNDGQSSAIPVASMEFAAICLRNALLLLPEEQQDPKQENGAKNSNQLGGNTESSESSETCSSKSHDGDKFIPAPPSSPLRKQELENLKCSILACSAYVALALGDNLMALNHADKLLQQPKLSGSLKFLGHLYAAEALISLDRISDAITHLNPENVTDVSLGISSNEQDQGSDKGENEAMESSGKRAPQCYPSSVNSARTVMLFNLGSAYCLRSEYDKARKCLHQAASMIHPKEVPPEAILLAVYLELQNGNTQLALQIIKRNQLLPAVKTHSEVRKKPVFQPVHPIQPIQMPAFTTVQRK
UniProt Q9H1K1: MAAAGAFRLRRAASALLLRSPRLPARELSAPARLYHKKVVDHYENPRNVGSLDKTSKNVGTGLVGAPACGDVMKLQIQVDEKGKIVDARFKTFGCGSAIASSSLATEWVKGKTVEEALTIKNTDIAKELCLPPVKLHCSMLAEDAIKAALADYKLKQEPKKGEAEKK
UniProt Q9H840: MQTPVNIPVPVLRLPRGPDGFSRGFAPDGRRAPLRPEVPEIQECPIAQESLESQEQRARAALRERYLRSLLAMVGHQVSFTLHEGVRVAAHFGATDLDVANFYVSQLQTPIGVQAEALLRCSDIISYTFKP
UniProt Q9NTX5: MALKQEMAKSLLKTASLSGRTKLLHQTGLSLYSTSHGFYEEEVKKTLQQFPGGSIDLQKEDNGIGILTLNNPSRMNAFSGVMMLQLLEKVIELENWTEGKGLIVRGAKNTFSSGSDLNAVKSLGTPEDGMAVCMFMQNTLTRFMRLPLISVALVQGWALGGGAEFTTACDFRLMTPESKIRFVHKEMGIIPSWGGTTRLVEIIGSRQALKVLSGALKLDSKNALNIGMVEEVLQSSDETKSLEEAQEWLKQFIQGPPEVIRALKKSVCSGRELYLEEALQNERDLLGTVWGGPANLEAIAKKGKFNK
UniProt Q9H3S7: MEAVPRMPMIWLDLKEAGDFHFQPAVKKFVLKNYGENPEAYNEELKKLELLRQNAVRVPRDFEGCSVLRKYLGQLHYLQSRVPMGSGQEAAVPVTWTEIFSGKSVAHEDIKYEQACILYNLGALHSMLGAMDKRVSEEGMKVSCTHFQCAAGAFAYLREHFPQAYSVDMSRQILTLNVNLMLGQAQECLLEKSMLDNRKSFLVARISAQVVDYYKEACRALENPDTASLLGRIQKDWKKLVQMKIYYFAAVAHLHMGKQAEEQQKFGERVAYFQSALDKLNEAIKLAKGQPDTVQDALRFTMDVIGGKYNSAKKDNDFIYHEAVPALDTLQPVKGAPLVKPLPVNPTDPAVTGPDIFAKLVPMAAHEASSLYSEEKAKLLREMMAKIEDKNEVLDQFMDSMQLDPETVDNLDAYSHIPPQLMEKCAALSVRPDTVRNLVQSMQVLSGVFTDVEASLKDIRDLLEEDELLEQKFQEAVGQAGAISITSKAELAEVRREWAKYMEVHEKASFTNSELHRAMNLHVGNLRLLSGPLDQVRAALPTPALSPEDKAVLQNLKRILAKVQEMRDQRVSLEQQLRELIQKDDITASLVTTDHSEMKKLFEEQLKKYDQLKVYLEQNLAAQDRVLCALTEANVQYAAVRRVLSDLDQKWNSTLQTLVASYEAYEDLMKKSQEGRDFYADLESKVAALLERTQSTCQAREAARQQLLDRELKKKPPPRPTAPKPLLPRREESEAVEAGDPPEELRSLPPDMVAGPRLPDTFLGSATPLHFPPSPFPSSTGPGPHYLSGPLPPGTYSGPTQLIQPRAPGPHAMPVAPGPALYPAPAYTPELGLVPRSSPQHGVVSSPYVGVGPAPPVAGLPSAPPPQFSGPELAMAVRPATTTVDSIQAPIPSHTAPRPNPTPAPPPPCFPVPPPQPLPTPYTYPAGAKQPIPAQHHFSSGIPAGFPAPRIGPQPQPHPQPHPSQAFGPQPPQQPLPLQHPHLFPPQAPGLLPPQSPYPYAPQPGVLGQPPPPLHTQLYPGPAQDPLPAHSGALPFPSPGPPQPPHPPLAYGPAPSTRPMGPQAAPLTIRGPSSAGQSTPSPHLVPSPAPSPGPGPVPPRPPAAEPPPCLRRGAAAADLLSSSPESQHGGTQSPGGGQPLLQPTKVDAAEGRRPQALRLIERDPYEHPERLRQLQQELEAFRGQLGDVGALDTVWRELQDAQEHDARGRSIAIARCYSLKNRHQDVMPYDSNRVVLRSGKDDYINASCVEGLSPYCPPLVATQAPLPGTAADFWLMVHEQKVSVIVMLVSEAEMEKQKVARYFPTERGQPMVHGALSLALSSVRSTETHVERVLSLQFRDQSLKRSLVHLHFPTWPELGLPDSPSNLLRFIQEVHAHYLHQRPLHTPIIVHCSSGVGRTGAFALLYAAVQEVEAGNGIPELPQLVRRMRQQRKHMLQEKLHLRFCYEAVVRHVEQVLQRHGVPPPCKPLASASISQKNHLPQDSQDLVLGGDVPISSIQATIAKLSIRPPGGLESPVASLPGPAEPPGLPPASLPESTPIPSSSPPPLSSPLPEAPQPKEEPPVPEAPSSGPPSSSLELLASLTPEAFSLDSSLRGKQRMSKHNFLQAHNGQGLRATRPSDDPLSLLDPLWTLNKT
UniProt Q9NPA0: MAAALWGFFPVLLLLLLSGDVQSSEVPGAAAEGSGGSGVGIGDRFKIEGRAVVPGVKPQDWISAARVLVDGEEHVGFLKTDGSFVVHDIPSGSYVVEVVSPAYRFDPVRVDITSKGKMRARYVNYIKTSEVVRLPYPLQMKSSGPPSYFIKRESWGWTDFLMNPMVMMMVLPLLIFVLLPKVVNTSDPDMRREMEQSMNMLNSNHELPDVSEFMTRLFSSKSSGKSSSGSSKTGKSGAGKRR

Compound: Nc1nc2c(ncn2[C@@H]2O[C@H](COP(=O)(O)OP(=O)(O)OP(=O)(O)O)[C@@H](O)[C@H]2O)c(=O)[nH]1 [guanosine triphosphate]
Experiment: NP40-soluble protein abundance relative to vehicle (solubility fold change) (ratio); higher = more soluble protein in presence of GTP
Procedure, shortened: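 Across three independent experiments, values are fold changes against the detergent-processed vehicle for each replicate, based on vsn-normalised intensities. The samples were Jurkat crude lysate treated with eight concentrations (0.1 to 10 mM) for 10 min at room temperature and then 3 min at 37 °C. Lysate was solubilised with 0.8% NP40 and benzonase, ultracentrifuged, and the supernatant analysed by TMT-labelled LC-MS/MS.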

Target	NP40-soluble protein abundance (concentration: 0.1mM)	NP40-soluble protein abundance (concentration: 0.5mM)	NP40-soluble protein abundance (concentration: 1mM)	NP40-soluble protein abundance (concentration: 2mM)	NP40-soluble protein abundance (concentration: 4mM)	NP40-soluble protein abundance (concentration: 6mM)	NP40-soluble protein abundance (concentration: 8mM)	NP40-soluble protein abundance (concentration: 10mM)
EML4 (UniProt Q9HC35)	0.994 ± 0.038	0.986 ± 0.05	0.944 ± 0.088	0.941 ± 0.082	0.917 ± 0.089	0.943 ± 0.064	0.95 ± 0.049	0.943 ± 0.062
NAT10 (UniProt Q9H0A0)	1.07 ± 0.065	1.04 ± 0.061	1.02 ± 0.063	1.07 ± 0.065	1.2 ± 0.079	1.31 ± 0.085	1.37 ± 0.077	1.59 ± 0.11
TBC1D22B (UniProt Q9NU19)	0.994 ± 0.021	0.983 ± 0.068	1.07 ± 0.047	1.01 ± 0.016	0.88471 ± 6.7e-05	0.971 ± 0.1	0.998 ± 0.039	0.951 ± 0.031
GOLPH3 (UniProt Q9H4A6)	0.992 ± 0.017	0.959 ± 0.038	0.933 ± 0.075	0.918 ± 0.061	0.906 ± 0.039	0.88 ± 0.031	0.893 ± 0.066	0.876 ± 0.067
UniProt Q9NPJ3 and related entries	0.914 ± 0.12	0.914 ± 0.074	0.852 ± 0.076	0.821 ± 0.058	0.783 ± 0.048	0.818 ± 0.053	0.785 ± 0.076	0.767 ± 0.056
UniProt Q9NPA3	1.03 ± 0.047	1.03 ± 0.037	0.944 ± 0.078	0.992 ± 0.07	1.06 ± 0.046	1.04 ± 0.015	0.992 ± 0.078	0.987 ± 0.048
UniProt Q9GZY8-2|Q9GZY8-5	0.94 ± 0.088	0.927 ± 0.12	0.955 ± 0.099	0.902 ± 0.16	0.907 ± 0.11	0.892 ± 0.13	0.918 ± 0.1	0.899 ± 0.089
MED4 (UniProt Q9NPJ6)	1 ± 0.067	0.96 ± 0.074	1.06 ± 0.057	1.05 ± 0.1	1.08 ± 0.11	1.12 ± 0.056	1.11 ± 0.053	1.09 ± 0.12
UniProt Q9H8M2 and related entries	0.966 ± 0.054	1.05 ± 0.13	1.03 ± 0.085	0.995 ± 0.033	1.04 ± 0.11	1.13 ± 0.12	1.11 ± 0.029	1.09 ± 0.04
QRSL1 (UniProt Q9H0R6)	1.06 ± 0.05	1 ± 0.028	1.06 ± 0.079	0.998 ± 0.03	1.02 ± 0.074	0.978 ± 0.032	1.05 ± 0.057	0.974 ± 0.046
DMAP1 (UniProt Q9NPF5)	1.04 ± 0.056	1.06 ± 0.059	1.11 ± 0.079	1.17 ± 0.099	1.22 ± 0.12	1.24 ± 0.15	1.29 ± 0.2	1.26 ± 0.18
UniProt Q9H9T3-2	1.05 ± 0.065	1.08 ± 0.06	1.07 ± 0.094	1.11 ± 0.13	1.09 ± 0.12	1.12 ± 0.12	1.08 ± 0.1	1.02 ± 0.1
MRPL44 (UniProt Q9H9J2)	1.07 ± 0.11	1.12 ± 0.21	1.25 ± 0.3	1.36 ± 0.34	1.35 ± 0.31	1.33 ± 0.35	1.35 ± 0.36	1.24 ± 0.32
UniProt Q9NR28 and related entries	0.964 ± 0.011	0.957 ± 0.055	0.972 ± 0.041	0.963 ± 0.075	0.976 ± 0.059	0.96 ± 0.068	0.94 ± 0.033	1.01 ± 0.035
UniProt Q9H9A5 and related entries	1.03 ± 0.051	1.05 ± 0.056	1.08 ± 0.029	1.13 ± 0.073	1.25 ± 0.14	1.23 ± 0.17	1.3 ± 0.2	1.31 ± 0.17
UniProt Q9H8K7	1.09 ± 0.16	1.03 ± 0.14	0.976 ± 0.029	0.956 ± 0.1	1.08 ± 0.11	0.961 ± 0.13	1.08 ± 0.049	1.01 ± 0.038
CDT1 (UniProt Q9H211)	0.913 ± 0.082	0.929 ± 0.11	0.945 ± 0.067	0.943 ± 0.022	0.961 ± 0.028	0.972 ± 0.051	0.984 ± 0.004	1 ± 0.11
ISCU (UniProt Q9H1K1)	0.893 ± 0.03	0.888 ± 0.043	0.92 ± 0.041	0.906 ± 0.084	0.893 ± 0.076	0.909 ± 0.093	0.898 ± 0.056	0.946 ± 0.043
GEMIN7 (UniProt Q9H840)	1.02 ± 0.074	1.08 ± 0.18	1.11 ± 0.11	1.18 ± 0.032	1.21 ± 0.084	1.2 ± 0.1	1.31 ± 0.23	1.31 ± 0.13
UniProt Q9NTX5 and related entries	1.03 ± 0.025	1 ± 0.032	0.9594 ± 0.0043	0.9362 ± 0.0029	0.922 ± 0.032	0.918 ± 0.022	0.916 ± 0.01	0.903 ± 0.02
UCK2 (UniProt Q9BZX2)	0.947 ± 0.053	0.929 ± 0.038	0.947 ± 0.044	0.905 ± 0.057	0.891 ± 0.05	0.92 ± 0.03	0.888 ± 0.03	0.885 ± 0.063
UniProt Q9HCM1	1.02 ± 0.041	0.979 ± 0.14	1.06 ± 0.069	1.07 ± 0.025	1.07 ± 0.088	1.07 ± 0.019	1.06 ± 0.024	1.158 ± 0.0046
WDR54 (UniProt Q9H977)	1.03 ± 0.098	1.07 ± 0.12	0.9175 ± 0.0071	0.982 ± 0.14	1.03 ± 0.14	0.95 ± 0.14	0.977 ± 0.1	0.925 ± 0.086
PTPN23 (UniProt Q9H3S7)	0.991 ± 0.03	0.984 ± 0.035	0.955 ± 0.041	0.959 ± 0.041	0.941 ± 0.048	0.936 ± 0.044	0.926 ± 0.066	0.93 ± 0.062
UniProt Q9NPA0	0.998 ± 0.019	1.03 ± 0.024	0.9816 ± 0.0095	1 ± 0.024	0.9974 ± 0.0027	0.941 ± 0.015	0.969 ± 0.024	0.947 ± 0.035
UniProt Q9NRW7 and related entries	1.02 ± 0.033	1 ± 0.049	0.9449 ± 0.0091	0.936 ± 0.027	0.915 ± 0.033	0.9257 ± 0.0027	0.894 ± 0.027	0.858 ± 0.059
SCAF1 (UniProt Q9H7N4)	1.04 ± 0.034	1.09 ± 0.041	1.16 ± 0.014	1.21 ± 0.06	1.25 ± 0.038	1.31 ± 0.049	1.37 ± 0.076	1.41 ± 0.088
MDN1 (UniProt Q9NU22)	1.09 ± 0.096	1.06 ± 0.12	0.971 ± 0.081	0.995 ± 0.097	1.08 ± 0.13	1.08 ± 0.12	1.09 ± 0.084	1.09 ± 0.083
RACGAP1 (UniProt Q9H0H5)	1.08 ± 0.031	1.1 ± 0.047	1.11 ± 0.065	1.13 ± 0.052	1.14 ± 0.05	1.14 ± 0.05	1.16 ± 0.053	1.15 ± 0.043
UniProt Q9NRL2 and related entries	1.02 ± 0.032	1.06 ± 0.056	1.06 ± 0.037	1.09 ± 0.054	1.13 ± 0.034	1.15 ± 0.036	1.19 ± 0.056	1.16 ± 0.039

A run of entries from the list above, for reference:
Target	NP40-soluble protein abundance (concentration: 0.1mM)	NP40-soluble protein abundance (concentration: 0.5mM)	NP40-soluble protein abundance (concentration: 1mM)	NP40-soluble protein abundance (concentration: 2mM)	NP40-soluble protein abundance (concentration: 4mM)	NP40-soluble protein abundance (concentration: 6mM)	NP40-soluble protein abundance (concentration: 8mM)	NP40-soluble protein abundance (concentration: 10mM)
UniProt Q9HCM1	1.02 ± 0.041	0.979 ± 0.14	1.06 ± 0.069	1.07 ± 0.025	1.07 ± 0.088	1.07 ± 0.019	1.06 ± 0.024	1.158 ± 0.0046
WDR54 (UniProt Q9H977)	1.03 ± 0.098	1.07 ± 0.12	0.9175 ± 0.0071	0.982 ± 0.14	1.03 ± 0.14	0.95 ± 0.14	0.977 ± 0.1	0.925 ± 0.086
